# Measured values from PubChem BioAssay AID493014 (National Center for Advancing Translational Sciences (NCATS), 2011).
# Some of the results follow. Further columns of the screen follow, without active or inactive calls. The list favours compounds with an active or inconclusive main result. Potencies come from curve fits of mixed quality, noted in brackets.
# Assay: qHTS Assay to Find Inhibitors of Chronic Active B-Cell Receptor Signaling
# Conditions: ABC-DLBCL IkBa-CBG/CBR reporter, luminescence ratio (green luciferase fused to IkBa over red control in TMD8 lymphoma cells), 4 h
# Outline: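 TMD8 human ABC-DLBCL cells with doxycycline-inducible IκBα–green luciferase fusion and unfused red luciferase, in 0.5% FBS medium; compounds up to 46 uM, 4 h at 37C. Green/red luminescence ratio, filter-overlap corrected, fitted to concentration-response curves.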
# [1] = measured here: CBR red luminescence, cell number
# [2] = measured here: IkBa-CBG green luminescence
Structure (SMILES),AC50 [1],AC50 [2]
Nc1c(N)c2ccccc2oc1=O,"0.326 µM [falling, full curve]",–
Cc1nc(N2CCC(C)CC2)c2c(C)c(C(=O)Nc3ccccc3C(F)(F)F)sc2n1,"2.51 µM [rising, full curve, poor fit]",–
COc1ccc(-c2c(-c3ccccc3OC)sc3ccccc23)cc1C=O,"0.0731 µM [rising, full curve, poor fit]",–
Cn1cc(/C=N/NC(=O)c2ccccc2O)c2ccccc21,"10 µM [falling, partial curve]",–
CC(=O)c1ccc2noc(-c3ccc(C)cc3)c2c1,"12.6 µM [falling, single point]",–
O=C(Nc1ccc(S(=O)(=O)N2CCCCC2)cc1)c1ccc(CN2CCOCC2)cc1,"18.4 µM [falling, partial curve, poor fit]",–
O=C1NC(N2CCOCC2)=N/C1=C/c1ccc2c(c1)OCO2,"22.4 µM [falling, single point]",–
Cc1ccc(S(=O)(=O)Nc2cc(C(C(=O)OC(C)C)C(=O)C(F)(F)F)c(O)c3ccccc23)c(C)c1 (stereo not given),"0.259 µM [falling, full curve, poor fit]",–
Nc1c(C(=O)N/N=C/c2cccnc2)oc2nc(-c3ccccc3)cc(-c3ccco3)c12,"20 µM [falling, partial curve, poor fit]",–
CCCS(=O)(=O)N1CCN(c2ccccc2F)CC1,"16.4 µM [falling, partial curve, poor fit]",–
CCOC(=O)CSc1nc(=O)n2ccc(C)cc2n1,"31.6 µM [rising, single point]",–
COc1ccc(NC(=O)c2[nH]ncc2[N+](=O)[O-])cc1,"15.8 µM [falling, single point]",–
COc1ccc(-c2nnn(CCC(=O)O)n2)cc1,"20.6 µM [falling, partial curve, poor fit]",–
CCOC(=O)c1c(C)[nH]c(C)c1S(=O)(=O)N1CCN(c2ccc([N+](=O)[O-])cc2)CC1,"20 µM [rising, partial curve, poor fit]","15.8 µM [falling, partial curve, poor fit]"
Cc1ccc(CNC(=O)CN(c2ccc(C)cc2)S(=O)(=O)c2c(C)n[nH]c2C)cc1,"25.1 µM [falling, single point]",–
COCCOC(=O)c1sc(=S)n(CCOC)c1N,–,"35.5 µM [falling, single point]"
COCCNC(=O)C(=O)Nc1ccc(Br)cc1,"14.6 µM [falling, single point]",–
COc1ccc(/C=C/C(=O)c2ccc3c(c2)OCO3)cc1OC,"16.4 µM [falling, single point]",–
CCN(CC)S(=O)(=O)c1cccc(NC(=O)C2SC(=Nc3ccc(C)cc3C)C(C(=O)NC(C)COC)=C2N)c1 (stereo not given),"29.1 µM [falling, single point]",–
Cc1ccc(O)c(C(=O)c2cnn(C(=O)Cc3csc(C)n3)c2)c1,"35.5 µM [rising, single point]",–
c1ccc2oc(C3=NNC(=NC4CC4)SC3)cc2c1,"11.6 µM [falling, partial curve]","29.1 µM [falling, single point]"

# As a working copy, part of the list above.
Structure (SMILES),AC50 [1],AC50 [2]
CC(=O)c1ccc2noc(-c3ccc(C)cc3)c2c1,"12.6 µM [falling, single point]",–
O=C(Nc1ccc(S(=O)(=O)N2CCCCC2)cc1)c1ccc(CN2CCOCC2)cc1,"18.4 µM [falling, partial curve, poor fit]",–

# More records follow:

Structure (SMILES),AC50 [1],AC50 [2]
COc1ccc(C(=O)NC(=S)NCCO)cc1Br,"35.5 µM [falling, single point]",–
COc1cccc(/C=N/NC(=O)CSc2ccccc2C)c1OC,"1.64 µM [rising, full curve, poor fit]",–
CCCCn1[nH]c(-c2ccccc2)cc1=O,"29.1 µM [rising, single point]","29.1 µM [falling, single point]"
Cc1[nH]n(C(N)=S)c(=O)c1N=Nc1ccc(S(=O)(=O)N2CCCCCC2)cc1,"29.1 µM [rising, single point]",–
O=C(CCC(=O)c1cccs1)Nc1ccc(F)c(F)c1F,"16.4 µM [falling, partial curve]",–
O=C(Nc1ccc(Br)cc1)c1cccc(OC(=S)N2CCOCC2)c1,"12.6 µM [falling, partial curve, poor fit]",–
CN(c1ccccc1)c1ncnc2c1cnn2C,"0.501 µM [rising, full curve, poor fit]",–
CCOc1cc(/C=C/c2cc(C(=O)O)c3ccccc3n2)ccc1O,"4.11 µM [falling, full curve]",–
COc1cc2cc(Br)cc(Br)c2nc1C,"16.4 µM [rising, partial curve]",–
COc1ccc(/C=C(/CC(=O)NCc2ccc(Cl)cc2)c2nc3ccccc3s2)cc1,"2.91 µM [rising, partial curve, poor fit]",–
CC(C)(C)c1ccc(-c2nnc3sc(-c4ccccn4)nn23)cc1,"12.6 µM [falling, single point]",–
C=CCn1c(SCC(=O)Nc2nc(C)cs2)nnc1C(C)NC(=O)c1ccccc1Cl (stereo not given),"13 µM [falling, partial curve, poor fit]","4.61 µM [rising, partial curve, poor fit]"
CCOC(=O)C1=C(COc2ccccc2)NC(=O)NC1c1ccc(Br)cc1 (stereo not given),"35.5 µM [falling, single point]",–
CCc1noc(C)c1C(=O)NNC(=O)c1ccccc1Cl,"1.3 µM [rising, full curve]",–
O=C(O)C1=CC[C@@H](c2ccc(Cl)cc2)N(S(=O)(=O)c2ccc(Cl)cc2)[C@H]1c1ccccc1,–,"7.31 µM [rising, partial curve, poor fit]"
CC1NC(=O)NC1CCCCCC(=O)NCCc1ccccc1 (stereo not given),"20.6 µM [rising, single point]",–
COc1ccccc1-c1nn2c(=O)cc(C)nc2s1,"0.411 µM [falling, partial curve, poor fit]",–
Cc1nc2cc(-c3ccc(Cl)cc3)nn2c(C)c1CCC(=O)NCc1ccco1,"0.366 µM [falling, full curve]",–
CNC(=S)N/N=C/c1c(C(=O)OC)cnn1-c1ccc(F)cc1F,"8.91 µM [falling, partial curve]",–
COc1ccc(NC(=S)Nc2ccc(OC)cc2OC)c(OC)c1,"29.1 µM [rising, partial curve, poor fit]",–
CC(C)CCNC(=O)c1cc2c(=O)n3ccccc3nc2s1,"7.08 µM [rising, full curve, poor fit]",–

# Individual results from the list:
# AC50 [1], COc1cccc(/C=N/NC(=O)CSc2ccccc2C)c1OC is entered as 1.64 µM [rising, full curve, poor fit]
# AC50 [2], O=C(O)C1=CC[C@@H](c2ccc(Cl)cc2)N(S(=O)(=O)c2ccc(Cl)cc2)[C@H]1c1ccccc1 is entered as 7.31 µM [rising, partial curve, poor fit]

# The list goes on:

Structure (SMILES),AC50 [1],AC50 [2]
Cc1nnc2sc(-c3csc4c3CCCC4)nn12,–,"25.9 µM [falling, partial curve, poor fit]"
Cc1cc(C)c2c(=O)[nH]c(SCC(=O)NCc3ccccc3)nc2n1,"29.1 µM [falling, single point]",–
CC(c1ccccc1)C1CC(=O)N(CC(=O)O)C1=O (stereo not given),"29.1 µM [falling, single point]",–
N#C/C(=C(/O)c1cccc(F)c1)c1nc2ccccc2s1,"0.562 µM [falling, full curve]",–
Cc1cc(=O)n2c(n1)NC(=NCc1ccccc1)NC2c1ccccc1 (stereo not given),"25.1 µM [falling, single point]","0.794 µM [rising, full curve, poor fit]"
Cc1ccc(OCCn2c(=O)cnc3ccccc32)cc1,"25.9 µM [rising, single point]","20.6 µM [falling, single point]"
CNC(=O)c1cc(C(=O)c2ccc(Cl)cc2)c(Br)[nH]1,"6.31 µM [rising, full curve, poor fit]",–
CC(=O)c1cccc(Nc2nc(-c3ccccc3)cs2)c1,"35.5 µM [falling, single point]",–
Cc1c(-c2ccccc2)nc2ccccc2c1C(=O)O,"0.164 µM [rising, full curve, poor fit]",–
CC(C)(C)NC(=O)NC(=O)COC(=O)c1nc(-c2ccccc2)n(-c2cccc(C(F)(F)F)c2)n1,"7.31 µM [rising, partial curve]",–
CC(C)n1c(=S)[nH]c2cc(C(F)(F)F)ccc21,"0.891 µM [rising, full curve, poor fit]",–
CC(C)CC(=O)NC(=S)Nc1ccc(NC(=O)c2ccco2)cc1,"23.1 µM [rising, single point]",–
O=[N+]([O-])c1ccc(COc2ccc(Br)cc2CN2CCOCC2)cc1,"3.98 µM [rising, partial curve]",–
O=C(NCCC1CCCCN1S(=O)(=O)c1cccs1)C(=O)Nc1ccccc1 (stereo not given),"9.2 µM [falling, partial curve]","3.26 µM [rising, full curve, poor fit]"
O=C(O)/C=C\C(=O)NC1CCCCC1,"25.9 µM [rising, single point]",–
O=[N+]([O-])c1ccc(Sc2ncccn2)c([N+](=O)[O-])c1,–,"12.6 µM [rising, partial curve, poor fit]"
O=c1oc2ccccc2c(N2CCCC2)c1[N+](=O)[O-],"11.2 µM [falling, partial curve]",–
O=C(NC(=S)Nc1cccc2c(O)cccc12)c1ccccc1[N+](=O)[O-],"0.562 µM [falling, full curve, poor fit]",–
C/C(=N\N=C(/N)SC1CC(=O)N(c2ccc(Cl)cc2)C1=O)c1cccs1 (stereo not given),"16.4 µM [falling, single point]",–
Cc1ccc(-c2cc(C(=O)N3CCCC3)no2)cc1,"9.2 µM [falling, partial curve]",–
Cc1cc(S(=O)(=O)N2CCCOC2CNC(=O)C(=O)NCc2ccco2)ccc1F (stereo not given),"0.112 µM [rising, full curve, poor fit]",–
